Values quoted from earlier work, collected in patent US6358699B1, “Assay for asymmetrical NG, NG dimethyl-l-arginine” (Cooke Pharma, priority 1999, dated 2002).

Details: cited from earlier work

Structure (SMILES): CN(C)C(N)=NCCC[C@H](N)C(=O)O [ADMA, asymmetric dimethylarginine]
- normal plasma ADMA level (normal values): about 1 micromolar
- elevation of plasma ADMA levels from normal (uremic rats and patients with renal failure): 5-10 fold
